We go through 51 molecules from the supplement of paper PMC9135407.

Several values for one entry are separate records, joined by “and”; a condition that tells them apart may be missing. Equal values may be shown once. Where a name gives a salt, the structure may show the parent alone. ± gives the standard deviation of the averaged measurements. Some of the results follow. Plates or batches differ in their baseline, so values are only roughly comparable.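 Primary human stellate myofibroblasts activated in culture; inactivation shown by regained lipid droplets. Readout: fraction of Hoechst-counted cells exceeding a per-plate Bodipy threshold, duplicate wells, each plate with DMSO negative and nortriptyline positive controls. Hits: control-normalized score beyond the plate's top-tenth-percentile nortriptyline wells, or among its three best wells. Final well concentrations unstated.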

The subject of the assay is primary human hepatic stellate cells (donor 1). In words: percent Bodipy-positive cells; higher = more lipid droplet accumulation. The following applies: 48 h.
The mark [1] stands for this setting: library stock concentration: 10 mM.
Setting [2] is: library stock concentration: 1 mM.
The mark [3] stands for this setting: library stock concentration: 3.33 mM.

Turning to `CS(=O)(=O)O.Oc1ccc2c3c1O[C@H]1c4oc5ccccc5c4C[C@@]4(O)C(C2)N(CC2CC2)CC[C@]314` [Naltriben mesylate], under setting [1], the “percent Bodipy-positive cells” value came to 74.9 ± 1.4%.
Consider `CNC(=O)Oc1ccc2c(c1)[C@]1(C)CCN(C)[C@@H]1N2C` [Physostigmine], for which the “percent Bodipy-positive cells” value under setting [1] is 12% and 23%.
As to `CNC(=O)Oc1ccc2c(c1)[C@]1(C)CCN(C)[C@@H]1N2C` [Physostigmine sulfate], the “percent Bodipy-positive cells” value (library stock concentration: 7.3 mM) is 11.2 ± 0.9%.
Turning to `CNC(=O)Oc1ccc2c(c1)[C@]1(C)CCN(C)[C@@H]1N2C` [(-)-Physostigmine], the “percent Bodipy-positive cells” value under setting [1] was 47.2 ± 13%.
`CNC(=O)Oc1ccc2c(c1)[C@]1(C)CCN(C)[C@@H]1N2C` [Physostigmine salicylate]: the “percent Bodipy-positive cells” value runs as follows: (library stock concentration: 4.8 mM) 3.87 ± 0.68%; under setting [1], 20.9 ± 7.7%.
As to `CNC(=O)Oc1ccc2c(c1)[C@]1(C)CCN(C)[C@@H]1N2C` [Eserine sulfate, physostigmine sulfate], the “percent Bodipy-positive cells” value amounted to 26.3 ± 5.2%.
In the case of `CCN(CC)CCOC(=O)C(O)(c1ccccc1)c1ccccc1`, the “percent Bodipy-positive cells” value under setting [1] was determined as 9.45 ± 6.3%.
Consider `Cc1onc(O)c1C[C@H](N)C(=O)O`, for which the “percent Bodipy-positive cells” value under setting [1] was determined as 7.1 ± 3.7%.
For the molecule `CCCCC/C=C\C/C=C\C/C=C\C/C=C\CCCC(=O)NCCOP(=O)(O)O` [Arachidonoyl Ethanolamide Phosphate], the “percent Bodipy-positive cells” value under setting [2] came to 13 ± 0.45%.
Take `CN1[C@H]2C[C@H](OC(=O)[C@H](CO)c3ccccc3)C[C@@H]1[C@@H](O)C2` [Anisodamine]: the “percent Bodipy-positive cells” value under setting [1] was found to be 25.1 ± 1.1%.
Still for that read-out and setting: for `CN1[C@H]2C[C@H](OC(=O)[C@H](CO)c3ccccc3)C[C@@H]1[C@@H](O)C2` the value was 39.9 ± 4.6%; for `O=C(O)CCC(CP(=O)(O)O)C(=O)O` (stereo not drawn) [PMPA (NAALADase inhibitor)], 7.05 ± 1.2%.
As to `CN(C)C(=O)Oc1cccc([N+](C)(C)C)c1` [Neostigmine bromide], the “percent Bodipy-positive cells” value is 25.9 ± 1.2%. Besides, the “percent Bodipy-positive cells” value (library stock concentration: 6.6 mM) is 2.4 ± 0.66%. Moreover, under setting [1], the “percent Bodipy-positive cells” value was 10.1% and 31.3%.
As for `CC(C)(C)OC(=O)c1ncn2c1[C@@H]1CCCN1C(=O)c1c(Br)cccc1-2` [Bretazenil], under setting [1], the “percent Bodipy-positive cells” value came out at 3.33 ± 0.55%.
With `C=C(C)[C@@H]1CCC(C)=C[C@H]1c1c(OC)cc(CCCCC)cc1OC` [Cannabidiol dimethyl ether], the “percent Bodipy-positive cells” value under setting [2] came to 13.5 ± 6%.
On to `CCOC(=O)c1ncc2[nH]c3ccc(OCc4ccccc4)cc3c2c1COC`, for which, under setting [1], the “percent Bodipy-positive cells” value came out at 22.6 ± 9.1%.
Consider `NP(N)(=O)NC(=O)c1ccc(F)cc1`, for which the “percent Bodipy-positive cells” value under setting [1] was 36.8 ± 4.4%.
Same read-out and setting: for `NP(N)(=O)NC(=O)c1ccc(F)cc1` [Flurofamide] the value was 8.19 ± 0.99%.
For the molecule `CC(C)(N)Cc1ccccc1` [Phentermine], the “percent Bodipy-positive cells” value (library stock concentration: 13.4 mM) is 23.6 ± 0.33%.
As for `COc1ccc(C(=O)c2c(C)n(CCN3CCOCC3)c3ccccc23)cc1` [Pravadoline], the “percent Bodipy-positive cells” value (library stock concentration: 5.3 mM) turned out to be 11.9 ± 3.7%.
With `CCCCC(C#N)(Cn1cncn1)c1ccc(Cl)cc1` (stereo not drawn) [Myclobutanil], the “percent Bodipy-positive cells” value (library stock concentration: 6.9 mM) was determined as 9.55 ± 1.8%.
Take `Clc1cccc(SC2CCNCC2)n1` [Anpirtoline hydrochloride]: the “percent Bodipy-positive cells” value under setting [1] was determined as 20.9 ± 7.2%.
As to `O=c1c2ccccc2[se]n1-c1ccccc1` [Ebselen], the “percent Bodipy-positive cells” value amounted to 85.2 ± 15%.
As for `CCc1c(C(=O)C(N)=O)c2c(OCC(=O)O)cccc2n1Cc1ccccc1`, the “percent Bodipy-positive cells” value by setting is: under setting [3], 6.5 ± 2%; under setting [1], 22.1 ± 6.9%.
In the case of `Cc1[nH]nc2ccc(-c3cncc(OC[C@@H](N)Cc4c[nH]c5ccccc45)c3)cc12`, the “percent Bodipy-positive cells” value reads like this: (library stock concentration: 80 uM) 41.6 ± 3.8%; (library stock concentration: 2 mM) 99.49 ± 0.72%; under setting [1], 100%.
On to `CCCCCC(/C=C/C=O)OO` (stereo not drawn) [4-hydroperoxy 2-Nonenal], for which, under setting [2], the “percent Bodipy-positive cells” value came out at 19.7 ± 7.2%.
Regarding `Cc1sc2c(c1C)C(c1ccc(Cl)cc1)=N[C@@H](CC(=O)Nc1ccc(O)cc1)c1nnc(C)n1-2`, the “percent Bodipy-positive cells” value reads like this: under setting [3], 55 ± 16%; under setting [1], 54 ± 12%.
With `CCNCC(O)c1cccc(O)c1` (stereo not drawn) [Etilefrine hydrochloride], the “percent Bodipy-positive cells” value amounted to 9.23 ± 1.9%.
Consider `NC(=NN=Cc1ccc(-c2cccc([N+](=O)[O-])c2)o1)N[N+](=O)[O-]` [ERK Inhibitor III], for which the “percent Bodipy-positive cells” value under setting [3] was found to be 11.5 ± 1.2%.
Consider `CCCCCCCCCCCCCCCCSP(=O)([O-])OCC[N+](C)(C)C` [thio-Miltefosine], for which the “percent Bodipy-positive cells” value under setting [2] was 14.1 ± 7.8%.
`O=c1c2ccccc2[se]n1-c1ccccc1`: under setting [1], the “percent Bodipy-positive cells” value is 85.3 ± 1.6%.
On the same count and under the same terms, for `CN1C2CCC1CC(OC(c1ccccc1)c1ccc(Cl)cc1)C2.Cl` (stereo not drawn) the value was 98.89 ± 0.66%.
Take `CN1CCc2cc3c(cc2C1O)OCO3` (stereo not drawn) [Hydrastinine hydrochloride]: the “percent Bodipy-positive cells” value was 26.5 ± 7.5%.
`CCCCCCC(=O)O[C@H]1CC[C@H]2[C@@H]3CC(=O)C4=CC(=O)CC[C@]4(C)[C@H]3CC[C@]12C` [6-keto Testosterone Enanthate]: the “percent Bodipy-positive cells” value under setting [2] came to 19.2 ± 7.4%.
Regarding `COc1ccc2c(c1OC)C(=O)OC2C1c2cc3c(cc2CCN1C)OCO3` (single isomer, unassigned; (+)) [(+)-Hydrastine], the “percent Bodipy-positive cells” value under setting [1] was 42.2 ± 3.4%.
Still for that read-out and setting: for `CCN(CC)CCO[C@H]1CC[C@@]2(C)C(=CC[C@@H]3[C@@H]2CC[C@]2(C)C(=O)CC[C@@H]32)C1.Cl` the value was 80.2 ± 2.6%; for `CCOP(=S)(OCC)Oc1ccc2c(C)c(Cl)c(=O)oc2c1`, 26.8 ± 3.8%.
The same measure, in the same setting: for `O=C1C=CC(=O)C=C1` [p-Benzoquinone] the value was 30.2 ± 8.1%; for `Cn1c2c(c3ccccc31)CCNCC2`, 29.1 ± 3.3%.
For the molecule `CCCCC/C=C\C/C=C\C/C=C\CCCCCCC(=O)NCCO` [Dihomo-.gamma.-Linolenoyl Ethanolamide], the “percent Bodipy-positive cells” value under setting [2] stood at 7.62 ± 0.9%.
As to `c1ccc2c(c1)Sc1ccccc1N2CC1CN2CCC1CC2` (stereo not drawn), the “percent Bodipy-positive cells” value under setting [1] is 96.494 ± 0.033%.
On to `FC(F)(F)c1cccc(N2CCNCC2)c1`, for which the “percent Bodipy-positive cells” value under setting [1] came to 56.9 ± 7.9%.
Take `C[C@H]1CNCCc2ccc(Cl)cc21` [Lorcaserin HCl]: the “percent Bodipy-positive cells” value reads like this: under setting [3], 25 ± 8.6%; under setting [1], 64.4 ± 0.28%.
With `CNCCCCCCN(C)N(O)N=O`, under setting [2], the “percent Bodipy-positive cells” value was determined as 7.39 ± 0.95%.
For the molecule `CC(=O)[C@H]1CC[C@H]2[C@@H]3CC[C@H]4C[C@H](O)CC[C@]4(C)[C@H]3C(=O)C[C@]12C` [Alfaxalone], the “percent Bodipy-positive cells” value stood at 10.8 ± 1.9%.
`CC(=O)[C@H]1CC[C@H]2[C@@H]3CC[C@H]4C[C@H](O)CC[C@]4(C)[C@H]3C(=O)C[C@]12C` [5alpha-Pregnan-3alpha-ol-11,20-dione]: the “percent Bodipy-positive cells” value under setting [1] is 36.8 ± 10%.
With `CC(=O)c1c(O)c(C)c(O)c(Cc2c(O)c3c(c(C(=O)/C=C/c4ccccc4)c2O)OC(C)(C)C=C3)c1O` [Rottlerin], the “percent Bodipy-positive cells” value (library stock concentration: 9.7 mM) turned out to be 22.6 ± 6.4% and the “percent Bodipy-positive cells” value under setting [1] worked out at 22.4 ± 0.93%.
Turning to `COc1ccccc1N1CCNCC1` [1-(2-Methoxyphenyl)piperazine hydrochloride], under setting [1], the “percent Bodipy-positive cells” value came out at 18.8 ± 4.1%.
Take `C=C1C[C@@H]2[C@H](CC[C@]3(C)C(=O)CC[C@@H]23)[C@@]2(C)C=CC(=O)C=C12` [Exemestane]: the “percent Bodipy-positive cells” value was 12.1 ± 6.5% under setting [3], 7.33 ± 0.26% (library stock concentration: 6.7 mM) and 25.3 ± 5.5% under setting [1].
For the molecule `C=C1C[C@@H]2[C@H](CC[C@]3(C)C(=O)CC[C@@H]23)[C@@]2(C)C=CC(=O)C=C12`, under setting [1], the “percent Bodipy-positive cells” value amounted to 42.3 ± 7.1%.
As to `Cc1ccc(-n2nccn2)c(C(=O)N2CCN(c3nc4cc(Cl)ccc4o3)CC[C@H]2C)c1` [Suvorexant (MK-4305)], the “percent Bodipy-positive cells” value under setting [3] was 29.6 ± 6.9% and the “percent Bodipy-positive cells” value under setting [1] was determined as 38.6 ± 9.8%.
